PubChem BioAssay AID1259261 – Sanger Institute, 2017

Screen: 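siRNA screen across the kinome for kinases that are essential and partners synergising with drugs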 (primary screen)
System: HCC2998 human colorectal cancer cells
Knock-down reagent: siRNA pool against human genes
Treatment: anchor drugs BYL719 1 µM, cetuximab 5 µg/ml or trametinib 10 nM, each compared with DMSO vehicle
Measurement: 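Viability as fraction of non-targeting control plus robust z-score without drug; synergy scores compare knock-down plus drug against each alone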
Scale: viability z-score, knock-down alone: higher = more viable cells than controls
Hit rule: 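Essential when the siRNA-alone viability robust z-score is below -3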
Calls: active = essential; inactive = no change
In all, the deposit lists 794 reagents; this is a part drawn at random. In the full data, 10 (1.3%) are marked active. 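Calls reflect knock-down alone without drug; synergy scores with BYL719, cetuximab or trametinib do not affect calls.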 Entries without a mark were called inactive. Not all columns of the deposit are shown. Reagent sequences are not shown. Not given: the amount of reagent, the time to read-out.

Silencing of TNK2 gave: viability z-score, knock-down alone 1.04. With knock-down of MLKL, the screen gave viability z-score, knock-down alone 0.841. PIK3CB gave viability z-score, knock-down alone -1.58. Depletion of EPHA6 resulted in: viability z-score, knock-down alone -2.69. With knock-down of CKS1B, the screen gave viability z-score, knock-down alone 0.638. PI4KB scored viability z-score, knock-down alone -0.148.

TAF1 gave viability z-score, knock-down alone -1.73. ADCK5 gave viability z-score, knock-down alone -0.742. Depletion of MED12 gave: viability z-score, knock-down alone -0.356. With knock-down of CAMK1 the results were viability z-score, knock-down alone 0.117. For AURKA, the values are viability z-score, knock-down alone -1.82. Against PRAG1, the values are viability z-score, knock-down alone -0.522.

Taken from above:
For “viability z-score, knock-down alone”, CAMK1 is entered as 0.117
Value of MLKL under “viability z-score, knock-down alone”: 0.841
